According to patent EP0664121A1, “Inhibition of ldl oxidation and atherosclerosis” (ELI LILLY AND COMPANY, priority 1993, dated 1995):
At least one structure is not confirmed: it was looked up by name or label, or the drawing left a doubt.

Test system: LDL
Assay: Thiobarbituric acid assay of copper-induced LDL peroxidation
Assay type: biochemical
Conditions: 250 µg LDL in 1 ml, 5 µM CuSO₄, 5-18 hrs at 37 degrees C
Experimental: The thiobarbituric acid assay as described by Schuh et al., (PNAS 75: 3173, 1978) and modified by Morel et al., (Lab Invest 55: 419, 1986) was used to determine the degree of inhibition of LDL peroxidation by estradiol and Compound A of the invention. A 1 ml solution containing 250 micrograms (µg) of LDL with either estradiol or Compound A of the invention in amounts varying from 1-30 µM is incubated for 5-18 hrs at 37 degrees C in the presence of 5 µM CuSO₄. Following incubation, 1 ml of 25% trichloroacetic acid and 1 ml of 1% thiobarbituric acid is added. All samples are boiled for 45 minutes and fluorescence is measured at 515 nm excitation and 553 nm emission wavelengths. (Compound A is a compound of formula 1 wherein R₁ and R₃ are hydrogen, and R₂ is 1-pyrrolidino).

## C[C@]12CC[C@@H]3c4ccc(O)cc4CC[C@H]3[C@@H]1CC[C@@H]2O [Estradiol, estradiol, reference compound]
1µM compound
  TBAR UNITS: 259 TBAR UNITS
5µM compound
  TBAR UNITS: 153 TBAR UNITS
25µM compound
  TBAR UNITS: 160 TBAR UNITS
